The values below come from publication doi:10.1101/059451.

Chains of the proteins cited; added tags and fusions are not shown. Lines headed by an entry give the natural chain unless they say otherwise; changes in a name come on top.
UniProt P61006: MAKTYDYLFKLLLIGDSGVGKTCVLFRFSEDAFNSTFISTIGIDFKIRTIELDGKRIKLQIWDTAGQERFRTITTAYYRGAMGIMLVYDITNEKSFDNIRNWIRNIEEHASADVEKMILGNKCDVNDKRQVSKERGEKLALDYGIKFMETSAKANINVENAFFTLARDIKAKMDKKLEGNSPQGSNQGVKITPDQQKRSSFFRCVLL

These are yes or no findings as the source states them, for the method shown. Binding seen in cells or lysates may run through a third protein. Some results given as binding are weak or reduced against the parent protein; the word gives no strength. Tags and fused reporters may be left off the sequences shown.

This test deals with T1, GST-RP2 (retinitis pigmentosa 2) (UniProt O75695).
T1 sequence: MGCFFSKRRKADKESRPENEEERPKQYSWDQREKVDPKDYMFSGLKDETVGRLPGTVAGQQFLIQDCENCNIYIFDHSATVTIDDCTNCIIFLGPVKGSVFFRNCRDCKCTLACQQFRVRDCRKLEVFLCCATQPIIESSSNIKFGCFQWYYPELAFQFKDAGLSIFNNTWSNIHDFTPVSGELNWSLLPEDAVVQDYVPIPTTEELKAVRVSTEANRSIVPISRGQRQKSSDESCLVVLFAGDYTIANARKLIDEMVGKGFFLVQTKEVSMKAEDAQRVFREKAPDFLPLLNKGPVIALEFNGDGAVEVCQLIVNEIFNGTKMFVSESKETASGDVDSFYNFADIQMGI
Briefly: pull-down.

In the case of “Myc-Rab8-T22N (from UniProt P61006 1-207) (enzyme)”, the binding entry is “binds”.
